Data published in patent US20040126819A1.

How the values were obtained:
[1] = target: 135 kD GDNF receptor subunit of rat cell lines; test: affinity labeling with the cross-linker EDAC
[2] = target: 300 kD GDNF receptor subunit of rat cell lines; test: affinity labeling with the cross-linker EDAC
[3] = target: 300 kD GDNF receptor subunit of rat cell lines; test: affinity labeling: 125I-GDNF cross-linked to ST15A cells, SDS/PAGE, autoradiography
[4] = target: 70 kD GDNF binding protein of E10 chick sympathetic neurons; test: affinity labeling of chick sympathetic neurons, SDS/PAGE autoradiography
[5] = target: 300 kD GDNF binding protein of E10 chick sympathetic neurons; test: as above
[6] = target: 135 kD GDNF receptor subunit of rat cell lines; test: EDAC cross-linking of 125I-GDNF to L6 rat myoblasts
[7] = target: 300 kD GDNF receptor subunit of rat cell lines; test: DSS cross-linking of 125I-GDNF to C6, RN33B and RN46A cells
[8] = target: 300 kD GDNF receptor subunit of rat cell lines; test: DSS cross-linking of 125I-GDNF to L6 rat myoblasts
[9] = target: 135 kD GDNF receptor subunit of rat cell lines; test: EDAC cross-linking to RN33B cells, SDS/PAGE
[10] = target: 135 kD GDNF receptor subunit of rat cell lines; test: affinity labeling: 125I-GDNF cross-linked to L6 cells, SDS/PAGE, autoradiography
[11] = target: 300 kD GDNF receptor subunit of rat cell lines; test: as above
[12] = target: 70 kD GDNF binding protein of E10 chick sympathetic neurons; test: chemical cross-linking to chick sympathetic neurons, SDS-PAGE
[13] = target: 300 kD GDNF binding protein of E10 chick sympathetic neurons; test: as above
[14] = target: 300 kD GDNF receptor subunit of human cell lines (A875, LAN5); test: affinity labeling: 125I-GDNF cross-linked to A875 cells, SDS/PAGE, autoradiography
[15] = target: 135 kD GDNF receptor subunit of rat cell lines; test: displacement of 125I-GDNF by increasing cold GDNF on RN33B cells, cross-linking, SDS-PAGE, band of the subunit cut out and counted
[16] = target: 300 kD GDNF receptor subunit of rat cell lines; test: as above
[17] = target: 135 kD GDNF receptor subunit of rat cell lines; test: affinity labeling: 125I-GDNF cross-linked to C6 cells, SDS/PAGE, autoradiography
[18] = target: 300 kD GDNF receptor subunit of rat cell lines; test: as above
[19] = target: 135 kD GDNF receptor subunit of rat cell lines; test: affinity labeling: 125I-GDNF cross-linked to RN46A cells, SDS/PAGE, autoradiography
[20] = target: 300 kD GDNF receptor subunit of rat cell lines; test: as above
[21] = target: 135 kD GDNF receptor subunit of rat cell lines; test: affinity labeling: 125I-GDNF cross-linked to RN33B cells, SDS/PAGE, autoradiography
[22] = target: 300 kD GDNF receptor subunit of rat cell lines; test: as above
[23] = target: 300 kD GDNF receptor subunit of human cell lines (A875, LAN5); test: affinity labeling: 125I-GDNF cross-linked to LAN5 cells, SDS/PAGE, autoradiography

Measured: binding

B1: recombinant rat GDNF produced in Sf21 insect cells using a baculovirus expression system (ligand, UniProt Q07731 78-211, looked up)
chain: SPDKQAAALPRRERNRQAAAASPENSRGKGRRGQRGKNRGCVLTAIHLNVTDLGLGYETKEELIFRYCSGSCEAAETMYDKILKNLSRSRRLTSDKVGQACCRPVAFDDDLSFLDDSLVYHILRKHSAKRCGCI
modifications: labeled with Na-^125I by the chloramine-T method where used as tracer
binds: [1] | [2] | [3] | [4] | [5] | [6] | [7] | [8] | [9] | [10] | [11] | [12] | [13] | [14] | [15] | [16] | [17] | [18] | [19] | [20] | [21] | [22] | [23]

No constants are given. Whether binding was seen depends on the method and setting. Binding can be weak; no strength is given.
